Laboratory results: PubChem BioAssay AID504594 (Broad Institute, 2011)
Hit rate of the full screen: of about 2,000 compounds, fewer than 10 were called active.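 How the source made its calls: active means growth inhibition of at least 75% in every replicate, which also brings the mean inhibition to 75% or more; inconclusive means mean inhibition 75% or more but some replicate under 75%; inactive means the rest.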 This is one part of the list.

test: growth inhibition of PfHsp90-dependent yeast, primary screen, antimalarial PfHsp90 inhibitor project, S. cerevisiae, BacTiter-Glo luminescence (AID 504594);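 further: 0% = DMSO neutral control wells and 100% = 20 µM radicicol control wells; higher value means stronger growth inhibition because the sign is flipped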; conditions: S. cerevisiae expressing PfHsp90, BacTiter-Glo growth, 48 h; at 9.4 µM; stronger effect = higher value

For `C[C@H](NC(=O)NCCc1ccccc1)C(=O)O`, which growth inhibition is on record?
The growth inhibition was inactive: -2.8%.

For `O=Cc1ccc(O)c(O)c1`, which growth inhibition is on record?
The growth inhibition was inactive: 6.98%.

Which growth inhibition does the source give for `COc1ccc(-c2cc(=O)oc3c(C)c(O)c(CN(C)C)cc23)cc1` here?
Its growth inhibition is inactive: 9.69%.

For `COC(=O)c1[nH]c2ccccc2c1NC(=O)CN1CCN(C/C=C/c2ccccc2)CC1`, which growth inhibition is on record?
Its growth inhibition is inactive: 2.33%.

Which growth inhibition does the source give for `COC(=O)c1cc(-c2c(C)oc3cc(OC)ccc3c2=O)c(C)o1` here?
Its growth inhibition is inactive: -6.22%.

With `O=C1CCCC(=O)C1=Cc1c[nH]c2ccccc12` as the compound, how does the growth inhibition read?
The growth inhibition was inactive: -5.74%.

For `CC(=O)O[C@H]1CSC[C@H]1NC(=O)c1ccccc1`, which growth inhibition is on record?
The growth inhibition was inactive: 12%.

With `C=C(C)c1nc2cc(OC)c(OC)cc2c(=O)o1` as the compound, how does the growth inhibition read?
The growth inhibition was inactive: 12.6%.

With `CC(C)(S)[C@@H](N)C(=O)O` as the compound, how does the growth inhibition read?
The growth inhibition was inactive: 9.78%.

Which growth inhibition does the source give for `CC1=C/C(=N\N=C2\NC(=O)C(CC(=O)Nc3ccccc3F)S2)CC(C)(C)C1` (stereo not given) here?
Its growth inhibition is inactive: 8.22%.

For `COc1ccc(C(=O)Nc2ncc3c(n2)CC(C)CC3=O)cc1` (stereo not given), which growth inhibition is on record?
Its growth inhibition is inactive: -12.5%.

With `CC(=O)Oc1ccc2c(=O)c(Oc3ccccc3[N+](=O)[O-])coc2c1` as the compound, how does the growth inhibition read?
The growth inhibition was inactive: 0.628%.

Which growth inhibition does the source give for `C[C@]12C=CC(=O)C=C1CCC1C3CC[C@](O)(C(=O)CO)[C@@]3(C)CC3OC312` (stereo not given in full) here?
Its growth inhibition is inactive: 0.333%.

Which growth inhibition does the source give for `O=C1C=CC(=O)C(C2=C3C(=O)N(CCc4ccccc4)CC(=O)N3CCC2)=C1` here?
Its growth inhibition is inactive: 0.713%.

Which growth inhibition does the source give for `COc1cc(OC)c(C(=O)CCCN2CCCC2)c(OC)c1` here?
The growth inhibition was inactive: -1.08%.

Which growth inhibition does the source give for `CCN1CCn2c3c(c4cc(Cl)ccc42)CCCC31` (stereo not given) here?
Its growth inhibition is inactive: 5.58%.

For `Cc1ccc2c(CC(=O)O)coc2c1`, which growth inhibition is on record?
The growth inhibition was inactive: -1.25%.

With `CCOC(=O)NN1C(=O)c2ccccc2NC1c1ccc(OC)c(OC)c1` (stereo not given) as the compound, how does the growth inhibition read?
Its growth inhibition is inactive: -6.91%.

With `COc1cc2c(cc1OC)-c1cc(OCc3ccccc3Cl)nc(=O)n1CC2` as the compound, how does the growth inhibition read?
Its growth inhibition is inactive: 21.4%.

Which growth inhibition does the source give for `COc1ccccc1N1CCN(CC(O)COc2cccc3ccccc23)CC1` (stereo not given) here?
The growth inhibition was inactive: 3.88%.

With `CN1CCC(=C2c3ccccc3CC(=O)c3sccc32)CC1` as the compound, how does the growth inhibition read?
Its growth inhibition is inactive: -3.51%.

For `COc1ccc(NC(=S)N2CCN(CCN3C(=O)c4cccc5cccc(c45)C3=O)CC2)cc1`, which growth inhibition is on record?
The growth inhibition was inactive: 1.82%.

Which growth inhibition does the source give for `OC(CCCN1CCC(O)(c2ccc(Cl)cc2)CC1)c1ccc(F)cc1` (stereo not given) here?
The growth inhibition was inactive: -2.57%.

Which growth inhibition does the source give for `Clc1cc(-c2ccc(/C=N/n3cnnc3)o2)ccc1Br` here?
Its growth inhibition is inactive: -1.41%.

With `COc1ccc(-c2c(NC(=O)c3ccco3)n(C)c3ccccc3c2=O)cc1` as the compound, how does the growth inhibition read?
Its growth inhibition is inactive: 0.407%.

For `CC(C)(Sc1cc(C(C)(C)C)c(O)c(C(C)(C)C)c1)Sc1cc(C(C)(C)C)c(O)c(C(C)(C)C)c1`, which growth inhibition is on record?
Its growth inhibition is inactive: -3.01%.

For `CSCCC(NC(C)=O)C(=O)Oc1ccc2c3c(c(=O)oc2c1)CCCC3` (stereo not given), which growth inhibition is on record?
The growth inhibition was inactive: 5.23%.

For `CCOc1ccc(N2C(=O)CC(NCCNc3ccc([N+](=O)[O-])cn3)C2=O)cc1` (stereo not given), which growth inhibition is on record?
The growth inhibition was inactive: -0.321%.

With `Cc1oc(/C=N/NC(=O)CC2(C)OCCO2)cc1Br` as the compound, how does the growth inhibition read?
The growth inhibition was inactive: -11.1%.

Which growth inhibition does the source give for `CC(=O)O[C@H]1C[C@@]2(C)[C@@H](C[C@@H](O)[C@H]3[C@@]4(C)CC[C@@H](O)[C@@H](C)C4CC[C@@]32C)/C1=C(\CCC=C(C)C)C(=O)O` (stereo not given in full) here?
Its growth inhibition is inactive: -0.768%.

For `Cn1c(=S)n(C)c2ccccc21`, which growth inhibition is on record?
The growth inhibition was inactive: 0.566%.

Which growth inhibition does the source give for `COc1ccc(C(C)=O)c2c1OCCO2` here?
Its growth inhibition is inactive: -3.84%.

With `C=CCC1(Cl)C(=O)C(Cl)=C(N2CCOCC2)C1(OC)OC` (stereo not given) as the compound, how does the growth inhibition read?
The growth inhibition was inactive: -2.68%.

Which growth inhibition does the source give for `CCC(=O)c1ccc(O)cc1` here?
Its growth inhibition is inactive: 1.29%.

With `Cc1cc(Cl)cc2c1NC(=O)[C@]21[C@@H]2C(=O)N(Cc3ccccc3)C(=O)[C@@H]2[C@@H]2CCCN21` as the compound, how does the growth inhibition read?
Its growth inhibition is inactive: 6.75%.

Which growth inhibition does the source give for `N/C(=N\OC(=O)CCCOc1ccc(Cl)cc1Cl)c1ccccn1` here?
Its growth inhibition is inactive: 10%.

With `COc1cc(C2Nc3ccccc3C(=O)N2c2ccccc2)ccc1O` (stereo not given) as the compound, how does the growth inhibition read?
Its growth inhibition is inactive: 1.04%.

With `Cc1ccc(-c2nn(-c3cccc(F)c3)cc2CN2CCN(c3ccccn3)CC2)o1` as the compound, how does the growth inhibition read?
Its growth inhibition is inactive: -8.98%.

With `COc1cc(C(=O)N/C(=C\c2cn(C)c3ccccc23)C(=O)NCCCO)cc(OC)c1OC` as the compound, how does the growth inhibition read?
Its growth inhibition is inactive: 13.5%.

For `CCn1ccnc1CN(C)Cc1cn(-c2cccc(C)c2)nc1-c1cccc(F)c1`, which growth inhibition is on record?
Its growth inhibition is inactive: 3.06%.

Which growth inhibition does the source give for `Cc1ccc2nc(N=C(N)N)nc(C)c2c1` here?
The growth inhibition was inactive: -4.91%.

Which growth inhibition does the source give for `CC1(C)CC(=O)c2cc(O)ccc2O1` here?
The growth inhibition was inactive: 5.59%.

For `c1cnc2c(c1)ccc1cccnc12`, which growth inhibition is on record?
The growth inhibition was inactive: 16.5%.

With `CCOc1ccc(OCCSc2nc3ccccc3[nH]2)cc1` as the compound, how does the growth inhibition read?
Its growth inhibition is inactive: 16.1%.

With `CC(C)C1CC(CCNCc2ccc(N(C)C)cc2)(c2ccccc2)CCO1` (stereo not given) as the compound, how does the growth inhibition read?
The growth inhibition was inactive: 7.99%.

With `CN1CCc2cccc3c2[C@H]1Cc1ccc(O)c(O)c1-3` as the compound, how does the growth inhibition read?
The growth inhibition was inactive: 3.77%.

Which growth inhibition does the source give for `CCC(NC(C)C)C(O)c1ccc(O)c(O)c1` (stereo not given) here?
Its growth inhibition is inactive: 4.7%.

With `COc1ccccc1-c1c(C(F)(F)F)oc2cc(OC(=O)c3ccc([N+](=O)[O-])cc3)ccc2c1=O` as the compound, how does the growth inhibition read?
The growth inhibition was inactive: -25%.

Which growth inhibition does the source give for `CN1CCN(C2=Nc3cc(Cl)ccc3Nc3ccccc32)CC1` here?
The growth inhibition was inactive: 13.4%.

With `Cc1cccc(-n2c(Cc3ccccc3)n[nH]c2=S)c1` as the compound, how does the growth inhibition read?
Its growth inhibition is inactive: -0.133%.

For `O[C@@H](CNC[C@H](O)c1ccccc1)c1ccccc1`, which growth inhibition is on record?
Its growth inhibition is inactive: 6.3%.

For `Cc1nc2ccccc2n1CC(=O)NC1CCCC1`, which growth inhibition is on record?
Its growth inhibition is inactive: -8.15%.

For `O=C(Nc1cccc(Cl)c1)N1CCN2C(=O)c3ccccc3C12c1ccccc1` (stereo not given), which growth inhibition is on record?
The growth inhibition was inactive: 8%.

Which growth inhibition does the source give for `CC(C)(C)c1csc(N/N=C/c2cccnc2)n1` here?
The growth inhibition was inactive: -25.8%.

Which growth inhibition does the source give for `NC12CC3CC(CC(C3)C1)C2` here?
The growth inhibition was inactive: -15.1%.
